Screening data, single-dose tests

Amino acid sequences for entries named in this document (tags omitted). Residues count along the entry.
UniProt Q4DA54, 1-478: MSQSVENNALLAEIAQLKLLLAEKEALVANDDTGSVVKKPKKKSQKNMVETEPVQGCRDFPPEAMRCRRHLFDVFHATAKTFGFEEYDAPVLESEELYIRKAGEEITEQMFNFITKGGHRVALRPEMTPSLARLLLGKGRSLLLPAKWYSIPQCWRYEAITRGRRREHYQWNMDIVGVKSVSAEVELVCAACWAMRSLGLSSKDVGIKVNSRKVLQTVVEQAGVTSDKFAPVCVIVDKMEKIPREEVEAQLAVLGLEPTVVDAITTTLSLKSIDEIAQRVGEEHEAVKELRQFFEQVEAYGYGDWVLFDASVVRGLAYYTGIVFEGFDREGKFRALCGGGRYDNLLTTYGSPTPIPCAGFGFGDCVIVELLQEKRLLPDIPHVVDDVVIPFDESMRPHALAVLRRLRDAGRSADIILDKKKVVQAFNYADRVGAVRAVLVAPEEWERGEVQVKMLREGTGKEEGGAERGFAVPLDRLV
UniProt P9WNZ1, whole entry: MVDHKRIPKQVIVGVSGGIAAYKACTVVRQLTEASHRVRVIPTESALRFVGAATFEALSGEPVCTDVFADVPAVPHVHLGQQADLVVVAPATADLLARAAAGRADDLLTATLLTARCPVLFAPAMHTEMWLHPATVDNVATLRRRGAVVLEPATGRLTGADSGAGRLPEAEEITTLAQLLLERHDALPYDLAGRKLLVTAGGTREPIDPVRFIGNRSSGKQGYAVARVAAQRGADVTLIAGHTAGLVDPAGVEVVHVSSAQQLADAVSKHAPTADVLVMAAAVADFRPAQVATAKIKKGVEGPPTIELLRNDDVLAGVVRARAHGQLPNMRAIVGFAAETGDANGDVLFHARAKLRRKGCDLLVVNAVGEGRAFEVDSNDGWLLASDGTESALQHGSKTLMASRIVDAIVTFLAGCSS
UniProt A4I591, 1-473: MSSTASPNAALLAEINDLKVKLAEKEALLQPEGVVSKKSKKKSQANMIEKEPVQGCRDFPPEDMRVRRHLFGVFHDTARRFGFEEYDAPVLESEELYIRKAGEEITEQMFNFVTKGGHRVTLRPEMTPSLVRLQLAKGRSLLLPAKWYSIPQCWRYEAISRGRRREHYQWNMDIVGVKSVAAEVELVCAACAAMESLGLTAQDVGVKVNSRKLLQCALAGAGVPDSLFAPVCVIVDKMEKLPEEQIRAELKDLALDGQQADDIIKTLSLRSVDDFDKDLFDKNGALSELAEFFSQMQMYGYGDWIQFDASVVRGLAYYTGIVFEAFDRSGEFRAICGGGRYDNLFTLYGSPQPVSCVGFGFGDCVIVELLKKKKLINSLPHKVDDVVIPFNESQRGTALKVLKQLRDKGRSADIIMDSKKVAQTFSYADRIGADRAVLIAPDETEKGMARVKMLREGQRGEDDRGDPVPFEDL

TcHisRS: 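Enzyme assay of histidyl-tRNA synthetase; the read-out is not stated. Target: Histidine-tRNA ligase, Trypanosoma cruzi CL Brener (UniProt Q4DA54). Concentration: 30 µM. Direction is inferred from retests: higher values go with stronger inhibition. Size under these conditions: about 69,000 compounds, about 31 of them at 50% or above in at least one test.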
Leishmania in macrophages: 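Cell assay of Leishmania donovani living inside macrophages; the read-out is not stated. Tested at 30 µM. Direction is inferred from retests: higher values go with stronger inhibition. Size under these conditions: about 69,000 compounds, about 1,000 of them at 50% or above in at least one test.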
Toxoplasma: 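Assay of Toxoplasma gondii numbers, read through their beta-galactosidase reporter with a colour substrate. Concentration: 10 µM. The record gives no direction; the compounds picked for IC50 retests had high values, so higher reads as fewer parasites. About 67,000 compounds were tested under these conditions; 0.38% (about 260) showed 50% or more at least once.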
CoaBC: 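Coenzyme A biosynthesis protein CoaBC, Mycobacterium tuberculosis (UniProt P9WNZ1). Enzyme assay of CoaBC with a phosphate dye (Biomol Green) read at 650 nm. Tested at 30 µM. Higher reads as stronger inhibition, judged from the few compounds that gave an IC50. Most strong results did not repeat in a second test. Of about 67,000 compounds tested this way, about 40 (0.06%) reached 50% or more in at least one test.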
LiHisRS: 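Enzyme assay of histidyl-tRNA synthetase; the read-out is not stated. Target: Histidine-tRNA ligase, Leishmania infantum (UniProt A4I591). Concentration: 30 µM. Direction is inferred from retests: higher values go with stronger inhibition. The assay is labelled LdHisRS but filed under L. infantum. Size under these conditions: about 69,000 compounds, about 410 of them at 50% or above in at least one test.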

Each number is a percent effect as filed.
How 0% and 100% were set is not recorded. Most values in the screen are low, and negative values occur.
This is an unselected part of the compounds tested.
Two or more numbers in one place are separate tests of the same structure; such repeats can differ widely.
A dash means the value is not listed here; it may have been measured.

| compound | TcHisRS | Leishmania in macrophages | Toxoplasma | CoaBC | LiHisRS |
|---|---|---|---|---|---|
| `Cc1cc2c(=O)n3c(nc2s1)CCN(Cc1[nH]cnc1C)CC3` | 0 | - | - | -0.2451 | -1.042 |
| `O=C(O)C(F)(F)F.[H][C@]12CCN(C(=O)c3cc[nH]n3)CC[C@@]1([H])S(=O)(=O)N(Cc1ccncc1)C2` | - | 13 & 3.244 | 12.98 | - | - |
| `COc1ccc(CN2CCOC(CCc3ccnc(N)c3)C2)cc1` (centres unmarked) | 1.099 | -4.151 & 11.36 | -17.72 | 5.34 | 1.449 |
| `COCC(=O)N1Cc2ccnn2CC(COCCN(C)C)C1.O=C(O)C(F)(F)F.O=C(O)C(F)(F)F` (centres unmarked) | - | -3.672 | 1.352 | - | - |
| `O=C(CCc1cc2n(n1)CCNC2)NCCS(=O)(=O)N1CCCC1` | 3.863 | -16.98 | 7.13 | -5.622 | 11.48 |
| `c1ccc(C(OCCNC2CCc3ncnn3C2)c2ccccc2)cc1` (centres unmarked) | 3.422 | 24.54 | -2.892 | 3.689 | 21.88 |
| `CCc1ncc(CN(CCc2ccccc2)Cc2cccs2)cn1.O=C(O)CC(O)(CC(=O)O)C(=O)O` | - | -1.419 | -1.832 | - | - |
| `c1c(-c2nc(CN3CCOCC3)no2)nnn1CC1CCCCC1` | 9.948 | 39.31 | 2.478 | 10.49 | 8.602 |
| `O=C(Cc1ccc2c(c1)OCC2)Nc1nc[nH]n1` | 7 | 32.59 | 0.6426 | 1.211 | -15.22 |
| `COc1cc(N2C[C@@H]3COC[C@]3(COCc3ccccn3)C2)ncn1` | 9.244 | - | - | 1.014 | 13.76 |
| `[H][C@@]12CS(=O)(=O)C[C@]1([H])N(C(=O)c1ccc3c(c1)CCCN3)CCN2CC` | - | 1.743 | -10.6 | - | - |
| `CCn1cc(CN2CCC(CCC(=O)Nc3ccccc3Cl)CC2)cn1` | 4.95 | -8.26 | 4.641 | -9.625 | -6.849 |
| `CSCc1cccc(NC(=O)N2CCC(N3CC=CC3)C2)c1` (centres unmarked) | 3.982 | 0.9489 | 0.0672 | 5.14 | 13.27 |
| `O=C(c1ccccc1)N1Cc2nccn2CC(Cn2ncccc2=O)C1` (centres unmarked) | 4.762 | -8.646 | -0.9663 | -14.92 | 11.11 |
| `CN(C)S(=O)(=O)N1CCCC1C(=O)N1CCSCC1` (centres unmarked) | 2.353 | -48.7 | 4.458 | -4.177 | 2.381 |
| `COc1ccccc1NCc1cscn1.Cl` | - | -18.75 | -7.844 | - | - |
| `Cc1nnc(C2CCN(C(=O)c3ccc4[nH]ccc4c3)CC2)s1` | 5.699 | -9.275 | 4.798 | 5.051 | 10.75 |
| `CCCn1[nH]cc/c1=N\C(=O)CN1CCn2c(nnc2C2CC2)C1` | 4.183 | -16.52 | -34.72 | 4.521 | 23.2 |
| `COc1ccc(NC(C)C(=O)N2CCN(Cc3ccccc3)CC2)cn1` (centres unmarked) | 7.438 | 19.65 | -0.2189 | -4.904 | 19.23 |
| `O=C(C1CCOCC1)N1CCC(OCc2cccnc2)CC1` | -3.636 | -44.93 | -5.273 | 2.554 | 18.18 |
| `COc1cc(OC)c(CNC(=O)NCC(=O)N(C)C)c(OC)c1` | 5.102 | 22.57 | 1.74 | -4.104 | 20 |
| `COC(=O)C1CCN(C(=O)Cn2ccc(-c3ccccc3)n2)CC1` | 2.646 | 7.972 | -3.239 | 0.1988 | 17.33 |
| `O=C(Nc1ccncc1)C1=NN(c2ccccc2)C(=O)CN1` | 2.286 | -6.883 | 4.051 | 4.462 | 18.64 |
| `O=C(NC1CCS(=O)(=O)C1)c1ccccc1SCc1cscn1` (centres unmarked) | -1.064 | -8.668 | 3.105 | 6.827 | 22.39 |
| `CCc1nsc(NC2CCOC3(CCCC3)C2)n1` (centres unmarked) | 7.143 | 30.14 | 3.996 | 1.944 | 5.714 |
| `O=C(O)[C@]12CCCN(Cc3ccccc3)C[C@H]1CN(c1ncccn1)C2` | 2.703 | - | - | 3.68 | 15.09 |
| `Cc1cccc(CN2CCCCC2c2n[nH]cc2-c2cc(C)no2)c1` (centres unmarked) | 5.747 | - | - | -8.252 | 15.71 |
| `CN1CCN(CCCNC(=O)C2CCCCC2)CC1` | 5.419 | 21.82 | 0.3544 | 2.848 | 9.091 |
| `CCOC1Sc2nnc(C)n2N=C1c1ccc(Cl)cc1` (centres unmarked) | 11.34 | 24.16 | 17.1 | 2.013 | 28.74 |
| `CC(C)CN1CC(O)CN(C(=O)c2cccc(C(F)(F)F)c2)CC1=O` (centres unmarked) | 3.371 | -5.029 | 0.1448 | -2.663 | -2.041 |
| `O=C(C1CCCCO1)N1CCc2ncnc(NCc3ccon3)c2CC1` (centres unmarked) | 8.046 | 16.01 | - | -1.353 | 11.29 |
| `CNC(=O)[C@@H]1COC[C@H]2CN(C(=O)c3ccc(OC)cc3)C[C@H]21` | 2.151 | - | - | 4.017 | 8.772 |
| `CCCS(=O)(=O)N1CCC(NC(=O)c2cc3ccccc3s2)CC1` | 3.333 | 22.53 | 4.884 | 10.74 | 16.96 |
| `Cl.N[C@@H](Cc1ccccc1)c1nnc(S(=O)(=O)Cc2cccc(Cl)c2)o1` | - | -12.87 | 5.388 | - | - |
| `Fc1ccccc1OCCc1cc(C2CCNC2)n[nH]1` (centres unmarked) | 6.716 | 18.5 & 3.794 | 27.57 | 6.326 | 11.58 |
| `NCc1cnc(Nc2ccccc2)nc1` | 8.333 | -1.587 | 12.27 | -1.381 | 10.42 |

Data taken from ChEMBL document CHEMBL3988442, “University of Dundee, Small-Polar-MMV Screening Library” (2021).